# Source: the supplement of paper PMC10849652
# Amino acid sequences for entries named in this document (tags omitted). A change or cut given only in a name is not applied to a line headed by its entry.
# UniProt Q6NSJ5: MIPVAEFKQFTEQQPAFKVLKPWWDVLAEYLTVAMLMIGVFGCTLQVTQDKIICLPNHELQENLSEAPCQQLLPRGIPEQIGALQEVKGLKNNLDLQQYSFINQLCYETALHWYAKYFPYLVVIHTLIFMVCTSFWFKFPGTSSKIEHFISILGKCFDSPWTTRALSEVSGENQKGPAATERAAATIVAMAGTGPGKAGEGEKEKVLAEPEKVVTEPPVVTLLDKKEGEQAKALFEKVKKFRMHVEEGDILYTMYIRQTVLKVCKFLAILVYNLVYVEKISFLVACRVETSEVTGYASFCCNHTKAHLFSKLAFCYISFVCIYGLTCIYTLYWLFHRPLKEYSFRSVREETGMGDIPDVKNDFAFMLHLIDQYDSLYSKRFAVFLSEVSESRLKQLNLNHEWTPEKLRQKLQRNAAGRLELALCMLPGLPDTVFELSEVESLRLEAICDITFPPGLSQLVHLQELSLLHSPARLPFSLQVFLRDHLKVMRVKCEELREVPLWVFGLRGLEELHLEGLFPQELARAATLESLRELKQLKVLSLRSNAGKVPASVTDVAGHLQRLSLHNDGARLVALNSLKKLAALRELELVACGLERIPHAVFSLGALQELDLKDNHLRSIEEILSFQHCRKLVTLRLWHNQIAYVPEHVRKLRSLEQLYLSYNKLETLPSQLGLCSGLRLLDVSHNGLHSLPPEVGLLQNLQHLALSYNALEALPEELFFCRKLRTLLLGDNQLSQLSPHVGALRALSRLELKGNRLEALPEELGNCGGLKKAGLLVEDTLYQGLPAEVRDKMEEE
# UniProt Q9Y4Y9: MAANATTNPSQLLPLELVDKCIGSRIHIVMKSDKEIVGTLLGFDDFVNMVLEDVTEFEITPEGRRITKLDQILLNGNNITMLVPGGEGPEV
# UniProt P27448: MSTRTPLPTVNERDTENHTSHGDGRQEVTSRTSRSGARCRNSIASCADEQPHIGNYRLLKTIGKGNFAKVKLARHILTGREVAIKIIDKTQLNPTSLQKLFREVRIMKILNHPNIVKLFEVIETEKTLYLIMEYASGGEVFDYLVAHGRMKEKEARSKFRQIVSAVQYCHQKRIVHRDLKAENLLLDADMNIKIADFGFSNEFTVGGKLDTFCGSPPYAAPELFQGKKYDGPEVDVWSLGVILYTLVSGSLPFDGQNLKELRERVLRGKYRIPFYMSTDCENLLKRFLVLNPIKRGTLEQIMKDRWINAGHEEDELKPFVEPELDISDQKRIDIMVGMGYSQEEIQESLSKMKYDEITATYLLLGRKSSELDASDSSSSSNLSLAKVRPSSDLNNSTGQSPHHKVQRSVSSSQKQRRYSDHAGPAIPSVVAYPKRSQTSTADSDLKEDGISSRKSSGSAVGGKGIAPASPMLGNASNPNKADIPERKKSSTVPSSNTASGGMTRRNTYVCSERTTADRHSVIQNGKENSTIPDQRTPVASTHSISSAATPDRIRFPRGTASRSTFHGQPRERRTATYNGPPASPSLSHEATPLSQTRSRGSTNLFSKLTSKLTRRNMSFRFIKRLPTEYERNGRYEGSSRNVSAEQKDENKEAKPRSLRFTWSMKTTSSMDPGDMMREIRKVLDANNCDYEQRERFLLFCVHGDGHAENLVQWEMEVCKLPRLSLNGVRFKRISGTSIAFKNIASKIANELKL
# UniProt P36941: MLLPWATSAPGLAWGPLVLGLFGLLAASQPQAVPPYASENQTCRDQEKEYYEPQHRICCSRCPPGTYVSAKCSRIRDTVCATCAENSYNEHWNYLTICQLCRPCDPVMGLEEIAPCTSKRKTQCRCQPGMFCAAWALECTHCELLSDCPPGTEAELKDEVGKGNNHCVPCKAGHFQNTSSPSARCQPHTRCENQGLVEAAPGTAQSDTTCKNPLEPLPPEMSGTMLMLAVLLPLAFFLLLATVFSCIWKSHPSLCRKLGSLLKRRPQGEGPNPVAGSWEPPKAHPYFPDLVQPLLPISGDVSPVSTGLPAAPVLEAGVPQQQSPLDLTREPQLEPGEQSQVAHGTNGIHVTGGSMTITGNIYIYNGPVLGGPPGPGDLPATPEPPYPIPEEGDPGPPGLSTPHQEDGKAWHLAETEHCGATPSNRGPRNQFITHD
# UniProt Q9ULX9: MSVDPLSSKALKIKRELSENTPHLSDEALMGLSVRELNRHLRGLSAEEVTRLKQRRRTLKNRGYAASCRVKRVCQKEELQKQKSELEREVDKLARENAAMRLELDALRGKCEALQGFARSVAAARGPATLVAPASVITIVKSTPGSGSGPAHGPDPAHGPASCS
# UniProt Q16539, whole entry, looked up: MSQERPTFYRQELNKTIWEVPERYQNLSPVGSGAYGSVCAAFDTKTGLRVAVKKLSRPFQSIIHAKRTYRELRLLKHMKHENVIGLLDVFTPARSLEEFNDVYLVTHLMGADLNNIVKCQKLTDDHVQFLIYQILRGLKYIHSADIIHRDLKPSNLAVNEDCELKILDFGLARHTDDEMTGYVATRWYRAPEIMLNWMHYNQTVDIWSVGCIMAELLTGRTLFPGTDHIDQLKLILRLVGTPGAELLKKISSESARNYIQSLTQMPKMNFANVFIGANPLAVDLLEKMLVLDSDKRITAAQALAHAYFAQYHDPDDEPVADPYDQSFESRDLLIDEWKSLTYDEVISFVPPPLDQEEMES
# UniProt Q8IVH8: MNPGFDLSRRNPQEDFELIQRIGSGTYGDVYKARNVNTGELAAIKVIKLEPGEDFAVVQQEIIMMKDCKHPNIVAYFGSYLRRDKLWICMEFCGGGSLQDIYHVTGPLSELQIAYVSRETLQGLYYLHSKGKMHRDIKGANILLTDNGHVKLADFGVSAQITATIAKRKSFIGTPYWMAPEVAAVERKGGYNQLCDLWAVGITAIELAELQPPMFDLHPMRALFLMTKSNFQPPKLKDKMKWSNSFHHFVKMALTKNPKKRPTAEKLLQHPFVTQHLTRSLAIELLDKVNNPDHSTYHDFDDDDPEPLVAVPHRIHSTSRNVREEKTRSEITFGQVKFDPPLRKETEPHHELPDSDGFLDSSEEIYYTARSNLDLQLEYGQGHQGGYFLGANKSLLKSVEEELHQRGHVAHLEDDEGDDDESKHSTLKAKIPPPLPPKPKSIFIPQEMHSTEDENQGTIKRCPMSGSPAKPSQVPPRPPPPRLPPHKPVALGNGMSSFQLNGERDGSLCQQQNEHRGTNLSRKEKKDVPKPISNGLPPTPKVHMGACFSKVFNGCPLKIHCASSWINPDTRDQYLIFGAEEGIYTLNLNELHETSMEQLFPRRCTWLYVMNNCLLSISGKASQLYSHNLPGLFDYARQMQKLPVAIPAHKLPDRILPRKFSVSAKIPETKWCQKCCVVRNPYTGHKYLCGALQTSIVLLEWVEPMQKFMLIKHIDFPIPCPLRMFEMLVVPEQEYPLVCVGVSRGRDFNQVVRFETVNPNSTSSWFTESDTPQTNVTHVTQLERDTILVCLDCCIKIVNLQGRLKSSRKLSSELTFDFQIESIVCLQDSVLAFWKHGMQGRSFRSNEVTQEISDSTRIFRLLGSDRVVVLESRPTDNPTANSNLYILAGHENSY
# UniProt Q96QZ7: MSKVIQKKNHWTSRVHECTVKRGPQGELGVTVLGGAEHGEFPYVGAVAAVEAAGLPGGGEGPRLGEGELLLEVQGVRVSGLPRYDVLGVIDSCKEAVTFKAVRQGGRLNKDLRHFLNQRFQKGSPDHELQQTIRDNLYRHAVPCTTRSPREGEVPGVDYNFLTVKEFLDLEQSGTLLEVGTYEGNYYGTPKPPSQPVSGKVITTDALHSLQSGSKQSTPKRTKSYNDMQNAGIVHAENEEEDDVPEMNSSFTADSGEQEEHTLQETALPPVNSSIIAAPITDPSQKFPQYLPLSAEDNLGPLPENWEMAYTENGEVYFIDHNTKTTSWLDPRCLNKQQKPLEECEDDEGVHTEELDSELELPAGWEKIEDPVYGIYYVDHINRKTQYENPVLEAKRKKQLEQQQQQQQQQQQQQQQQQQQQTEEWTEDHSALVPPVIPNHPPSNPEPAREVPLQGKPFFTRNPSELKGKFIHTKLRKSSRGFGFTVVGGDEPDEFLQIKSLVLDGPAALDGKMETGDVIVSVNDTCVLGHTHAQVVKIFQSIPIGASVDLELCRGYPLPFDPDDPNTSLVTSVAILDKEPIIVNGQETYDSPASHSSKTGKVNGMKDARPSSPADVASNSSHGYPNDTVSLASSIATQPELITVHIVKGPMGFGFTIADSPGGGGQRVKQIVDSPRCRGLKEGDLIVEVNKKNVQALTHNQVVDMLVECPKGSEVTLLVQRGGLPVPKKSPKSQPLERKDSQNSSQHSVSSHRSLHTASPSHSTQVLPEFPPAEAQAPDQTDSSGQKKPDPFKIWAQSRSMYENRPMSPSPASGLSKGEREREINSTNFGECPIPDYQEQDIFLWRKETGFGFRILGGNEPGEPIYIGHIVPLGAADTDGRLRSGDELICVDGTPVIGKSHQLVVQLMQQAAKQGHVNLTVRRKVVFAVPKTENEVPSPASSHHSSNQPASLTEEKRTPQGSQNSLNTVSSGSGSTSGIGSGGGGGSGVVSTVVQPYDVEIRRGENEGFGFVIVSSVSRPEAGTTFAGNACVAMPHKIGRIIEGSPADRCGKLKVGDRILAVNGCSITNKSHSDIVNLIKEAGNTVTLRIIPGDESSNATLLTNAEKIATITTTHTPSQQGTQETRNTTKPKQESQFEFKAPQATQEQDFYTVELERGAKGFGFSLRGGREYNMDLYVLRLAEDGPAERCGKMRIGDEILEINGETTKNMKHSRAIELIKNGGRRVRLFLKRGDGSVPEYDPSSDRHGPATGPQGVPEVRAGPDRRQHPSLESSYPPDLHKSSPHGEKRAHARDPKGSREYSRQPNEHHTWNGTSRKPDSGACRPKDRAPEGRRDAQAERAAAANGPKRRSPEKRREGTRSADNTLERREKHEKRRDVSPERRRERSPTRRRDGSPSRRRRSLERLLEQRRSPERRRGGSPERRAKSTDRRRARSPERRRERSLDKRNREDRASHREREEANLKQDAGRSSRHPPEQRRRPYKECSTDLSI
# UniProt O14733: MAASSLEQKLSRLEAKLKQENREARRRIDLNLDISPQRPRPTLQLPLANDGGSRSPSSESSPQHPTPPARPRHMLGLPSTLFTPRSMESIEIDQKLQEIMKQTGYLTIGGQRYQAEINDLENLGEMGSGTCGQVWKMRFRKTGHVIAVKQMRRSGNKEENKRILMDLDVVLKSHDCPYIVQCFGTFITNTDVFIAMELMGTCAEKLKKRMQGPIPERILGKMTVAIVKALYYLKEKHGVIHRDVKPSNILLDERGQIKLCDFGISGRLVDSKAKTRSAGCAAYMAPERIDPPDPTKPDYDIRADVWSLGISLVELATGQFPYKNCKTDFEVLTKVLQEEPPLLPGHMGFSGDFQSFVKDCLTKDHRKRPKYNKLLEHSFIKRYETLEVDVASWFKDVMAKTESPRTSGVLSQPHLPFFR
# UniProt Q9Y6D9: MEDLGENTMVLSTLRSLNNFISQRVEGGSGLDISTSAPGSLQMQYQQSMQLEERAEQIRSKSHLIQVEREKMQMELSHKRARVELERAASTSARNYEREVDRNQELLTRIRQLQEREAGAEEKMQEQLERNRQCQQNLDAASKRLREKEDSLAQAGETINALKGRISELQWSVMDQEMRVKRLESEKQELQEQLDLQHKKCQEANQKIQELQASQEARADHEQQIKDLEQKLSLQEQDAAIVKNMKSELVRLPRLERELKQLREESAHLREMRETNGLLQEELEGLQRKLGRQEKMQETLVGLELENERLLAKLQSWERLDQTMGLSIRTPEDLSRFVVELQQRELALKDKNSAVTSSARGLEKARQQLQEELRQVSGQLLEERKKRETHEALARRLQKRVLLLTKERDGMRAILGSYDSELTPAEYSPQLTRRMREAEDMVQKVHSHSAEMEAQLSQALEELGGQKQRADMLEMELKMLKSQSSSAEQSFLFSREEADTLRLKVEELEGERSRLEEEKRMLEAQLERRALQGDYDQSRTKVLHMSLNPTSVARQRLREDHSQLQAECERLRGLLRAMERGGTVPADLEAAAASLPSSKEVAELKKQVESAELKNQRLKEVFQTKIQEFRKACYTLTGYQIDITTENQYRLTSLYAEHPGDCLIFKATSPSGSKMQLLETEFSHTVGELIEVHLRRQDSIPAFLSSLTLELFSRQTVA
# Some of the results follow. Residues, ends and D or L forms follow the SMILES beside them. *: point of attachment. Cbz = O=C(OCc1ccccc1)*
# What was measured:
# Assay in all cases: log2 fold change, soluble protein after heating vs DMSO (PISA); higher = thermal stabilisation; K562 cells, 10 uM, 30 min; active = over 0.2 and 3.5 SD of the protein, either way, in both replicates (recomputed)
# IRAK-1-4 Inhibitor I = compound: C1COCCN1CCN2C3=CC=CC=C3N=C2NC(=O)C4=CC(=CC=C4)[N+](=O)[O-] [IRAK-1-4 Inhibitor I]
# Summary of the method: (§1)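 Thermal stability values are relative to control samples and come from duplicates. They are expressed as log2 fold changes. For measurement, K562 cells (2×10^6 cells/mL) received 10 μM compound for 30 min, and aliquots were heated for 3 min over 48°C-58°C, pooled, and extracted at 4°C in PBS with 0.5% NP-40. Soluble protein, the supernatant after 21,000xg for 90 min, was quantified by TMTpro 16plex LC-MS/MS with equalised channel sums.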
# ibrutinib = compound: C=CC(=O)N1CCC[C@@H](n2nc(-c3ccc(Oc4ccccc4)cc3)c3c(N)ncnc32)C1 [ibrutinib]
# Summary of the method: as §1
# ralimetinib = compound: CC(C)(C)Cn1c(N)nc2ccc(-c3[nH]c(C(C)(C)C)nc3-c3ccc(F)cc3)nc21 [ralimetinib]
# Summary of the method: as §1
# [1] = compound: CC(C)(O)CC(=O)NCCn1ccc2ncnc(Nc3ccc(Oc4cccc(C(F)(F)F)c4)c(Cl)c3)c21
# Summary of the method: as §1
# [2] = compound: CC(C)C1=C2N=C(C=C(N2N=C1)NCC3=CC=CC=C3)NCCCCCCN
# Summary of the method: as §1
# [3] = compound: CC(C)C[C@@H](C=O)NC(=O)[C@H](CC(C)C)NC(=O)[C@H](CC(C)C)NC(=O)OCc1ccccc1
# Summary of the method: as §1
# pinometostat = compound: CC(C)N(C[C@H]1O[C@@H](n2cnc3c(N)ncnc32)[C@H](O)[C@@H]1O)[C@H]1C[C@@H](CCc2nc3cc(C(C)(C)C)ccc3[nH]2)C1 [pinometostat]
# Summary of the method: as §1
# [4] = compound: CC1=C(C2=C(C=C1)C(=O)C3=CC=CC=C3N2CCCN)C
# Summary of the method: as §1
# [5] = compound: CC1=C(C=C(C=C1)NC(=O)C2=CC(=CC=C2)C(C)(C)C#N)NC3=CC4=C(C=C3)N=CN(C4=O)C
# Summary of the method: as §1
# [6] = compound: CC1=C(C=C(C=C1)NC(=O)C2=CC(=CC=C2)N(C)C)NC(=O)C3=CC=C(C=C3)O
# Summary of the method: as §1
# [7] = compound: CC1=CC=C(C=C1)SC2=C3C=C(SC3=CN=C2)C(=O)N
# Summary of the method: as §1
# [8] = compound: CC1=NC(=CC=C1)C2=C(N=C(N2)C(C)(C)C)C3=CC4=NC=CN=C4C=C3
# Summary of the method: as §1
# Nexturastat A = compound: CCCCN(Cc1ccc(C(=O)NO)cc1)C(=O)Nc1ccccc1 [Nexturastat A]
# Summary of the method: as §1
# vemurafenib = compound: CCCS(=O)(=O)Nc1ccc(F)c(C(=O)c2c[nH]c3ncc(-c4ccc(Cl)cc4)cc23)c1F [vemurafenib]
# Summary of the method: as §1
# [9] = compound: CCCS(=O)(=O)Nc1ccc(F)c(C(=O)c2c[nH]c3ncc(Cl)cc23)c1F
# Summary of the method: as §1
# [10] = compound: CCCc1cc(C)[nH]c(=O)c1CNC(=O)c1cc(-c2ccnc(N3CCN(C)CC3)c2)cc2c1cnn2C(C)C
# Summary of the method: as §1
# givinostat = compound: CCN(CC)Cc1ccc2cc(COC(=O)Nc3ccc(C(=O)NO)cc3)ccc2c1 [givinostat]
# Summary of the method: as §1
# barasertib = compound: CCN(CCCOc1ccc2c(Nc3cc(CC(=O)Nc4cccc(F)c4)[nH]n3)ncnc2c1)CCOP(=O)(O)O [barasertib]
# Summary of the method: as §1
# [11] = compound: CC1=C(C(CC(=O)N1)C2=CC=C(C=C2)C(F)(F)F)C(=O)NC3=C(C=C4C(=C3)C=NN4)F
# Summary of the method: as §1
# [12] = compound: CC(=O)c1cnc2ccc(-c3cc(Cl)c(O)c(Cl)c3)nc2c1N[C@H]1CC[C@H](CN(C)C)CC1
# Summary of the method: as §1
Target,log2 fold change (IRAK-1-4 Inhibitor I),log2 fold change (ibrutinib),log2 fold change (ralimetinib),log2 fold change [1],log2 fold change [2],log2 fold change [3],log2 fold change (pinometostat),log2 fold change [4],log2 fold change [5],log2 fold change [6],log2 fold change [7],log2 fold change [8],log2 fold change (Nexturastat A),log2 fold change (vemurafenib),log2 fold change [9],log2 fold change [10],log2 fold change (givinostat),log2 fold change (barasertib),log2 fold change [11],log2 fold change [12]
LRRC8E (UniProt Q6NSJ5),inactive: 0.036,inactive: -0.058,inactive: 0.126,inactive: 0.031,inactive: 0.154,inactive: -0.033,inactive: 0.054,inactive: 0.128,inactive: 0.085,inactive: -0.011,inactive: -0.043,inactive: -0.064,inactive: 0.106,inactive: -0.065,inactive: -0.09,inactive: -0.008,inactive: -0.151,inactive: -0.047,–,–
LSM5 (UniProt Q9Y4Y9),inactive: 0.136,inactive: -0.042,inactive: 0.164,inactive: 0.303,inactive: 0.187,inactive: 0.193,inactive: 0.086,inactive: -0.02,inactive: 0.112,inactive: -0.063,–,inactive: -0.071,inactive: 0.042,–,–,inactive: -0.262,inactive: -0.284,inactive: 0.194,inactive: 0.092,–
MARK3 (UniProt P27448),inactive: -0.071,inactive: -0.026,inactive: 0.014,inactive: -0.035,inactive: -0.171,inactive: 0.084,inactive: 0.156,inactive: 0.026,inactive: -0.017,inactive: 0.02,inactive: 0.067,inactive: -0.029,inactive: 0.074,inactive: 0,inactive: 0.004,inactive: 0.077,inactive: 0.038,inactive: 0.023,–,active: -2.03
LTBR (UniProt P36941),inactive: -0.052,inactive: -0.016,inactive: 0.016,inactive: 0.168,inactive: 0.177,inactive: 0.124,inactive: -0.059,inactive: -0.159,inactive: -0.012,inactive: 0.124,inactive: -0.003,inactive: 0.059,inactive: -0.089,inactive: 0.023,inactive: -0.049,–,inactive: 0,inactive: 0.043,–,inactive: -0.038
MAFF (UniProt Q9ULX9),inactive: 0.043,inactive: 0.05,inactive: 0.035,–,–,inactive: 0.156,inactive: 0.21,–,inactive: 0.058,inactive: -0.039,–,inactive: -0.155,–,inactive: -0.032,–,inactive: -0.061,–,inactive: -0.009,inactive: 0.056,inactive: 0.106
MAP2K1 (UniProt Q02750),inactive: 0.047,inactive: -0.016,inactive: 0.004,inactive: -0.066,inactive: 0.023,inactive: 0.015,inactive: -0.061,inactive: 0.026,inactive: -0.013,inactive: 0.001,inactive: 0.029,inactive: 0.049,inactive: -0.061,inactive: -0.009,inactive: 0.018,inactive: 0.129,inactive: 0.007,inactive: 0.005,–,active: -0.349
MAPK14 (UniProt Q16539),inactive: -0.048,inactive: 0.016,active: 1.52,–,inactive: -0.178,inactive: -0.135,inactive: -0.09,inactive: 0.062,active: 1.62,inactive: 0.615,inactive: 0.111,inactive: 0.022,–,inactive: 0.059,inactive: 0.339,inactive: 0.002,inactive: 0.03,inactive: -0.029,–,active: 0.793
MAP4K3 (UniProt Q8IVH8),inactive: -0.016,inactive: -0.34,–,–,inactive: -0.081,–,inactive: 0.03,–,inactive: 0.091,–,–,inactive: 0.015,–,inactive: -0.193,–,–,inactive: 0.069,inactive: -0.049,–,–
MAGI1 (UniProt Q96QZ7),inactive: 0,inactive: 0.057,inactive: 0.014,inactive: 0.032,inactive: -0.009,inactive: 0.01,inactive: 0.025,inactive: 0.07,inactive: 0.041,inactive: 0.041,inactive: -0.027,inactive: -0.023,inactive: 0.074,inactive: 0.018,inactive: -0.009,inactive: -0.026,inactive: -0.013,inactive: -0.008,–,inactive: -0.071
MAP2K7 isoform 4 (UniProt O14733),inactive: 0.013,active: -0.301,inactive: -0.043,inactive: -0.013,inactive: -0.025,inactive: 0.051,inactive: 0.022,inactive: 0.032,inactive: -0.068,inactive: 0.003,inactive: -0.008,inactive: 0.009,inactive: -0.031,inactive: -0.01,inactive: 0.009,inactive: -0.026,inactive: -0.019,inactive: 0.016,–,inactive: 0.175
MAD1L1 (UniProt Q9Y6D9),inactive: -0.01,inactive: 0.115,inactive: 0.275,inactive: -0.133,inactive: -0.18,inactive: 0.231,inactive: 0.014,inactive: 0.132,–,inactive: -0.074,inactive: 0,inactive: -0.101,inactive: -0.041,inactive: 0.081,inactive: 0.009,inactive: 0.169,inactive: 0.105,inactive: -0.091,–,inactive: -0.036

# Record cards, as listed above. Order of values: log2 fold change (IRAK-1-4 Inhibitor I) | log2 fold change (ibrutinib) | log2 fold change (ralimetinib) | log2 fold change [1] | log2 fold change [2] | log2 fold change [3] | log2 fold change (pinometostat) | log2 fold change [4] | log2 fold change [5] | log2 fold change [6] | log2 fold change [7] | log2 fold change [8] | log2 fold change (Nexturastat A) | log2 fold change (vemurafenib) | log2 fold change [9] | log2 fold change [10] | log2 fold change (givinostat) | log2 fold change (barasertib) | log2 fold change [11] | log2 fold change [12]
# LSM5 (UniProt Q9Y4Y9) is listed with inactive: 0.136 | inactive: -0.042 | inactive: 0.164 | inactive: 0.303 | inactive: 0.187 | inactive: 0.193 | inactive: 0.086 | inactive: -0.02 | inactive: 0.112 | inactive: -0.063 | – | inactive: -0.071 | inactive: 0.042 | – | – | inactive: -0.262 | inactive: -0.284 | inactive: 0.194 | inactive: 0.092 | –
# MAP4K3 (UniProt Q8IVH8) is listed with inactive: -0.016 | inactive: -0.34 | – | – | inactive: -0.081 | – | inactive: 0.03 | – | inactive: 0.091 | – | – | inactive: 0.015 | – | inactive: -0.193 | – | – | inactive: 0.069 | inactive: -0.049 | – | –
